From the supplement of paper PMC12595434, “Development of retinoid nuclear receptor pathway antagonists through targeting aldehyde dehydrogenase 1A3” (iScience, 2025)
The list shows a part of the results. The data scatter; read single values as rough.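 Tm was set to 64 °C where no melting was found, and many curves are irregular.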

The chains behind the UniProt entries cited, without tags or fusion partners. Where a name states a change or a piece, a line headed by the entry shows the natural chain unless it says otherwise.
UniProt Q9ULV3: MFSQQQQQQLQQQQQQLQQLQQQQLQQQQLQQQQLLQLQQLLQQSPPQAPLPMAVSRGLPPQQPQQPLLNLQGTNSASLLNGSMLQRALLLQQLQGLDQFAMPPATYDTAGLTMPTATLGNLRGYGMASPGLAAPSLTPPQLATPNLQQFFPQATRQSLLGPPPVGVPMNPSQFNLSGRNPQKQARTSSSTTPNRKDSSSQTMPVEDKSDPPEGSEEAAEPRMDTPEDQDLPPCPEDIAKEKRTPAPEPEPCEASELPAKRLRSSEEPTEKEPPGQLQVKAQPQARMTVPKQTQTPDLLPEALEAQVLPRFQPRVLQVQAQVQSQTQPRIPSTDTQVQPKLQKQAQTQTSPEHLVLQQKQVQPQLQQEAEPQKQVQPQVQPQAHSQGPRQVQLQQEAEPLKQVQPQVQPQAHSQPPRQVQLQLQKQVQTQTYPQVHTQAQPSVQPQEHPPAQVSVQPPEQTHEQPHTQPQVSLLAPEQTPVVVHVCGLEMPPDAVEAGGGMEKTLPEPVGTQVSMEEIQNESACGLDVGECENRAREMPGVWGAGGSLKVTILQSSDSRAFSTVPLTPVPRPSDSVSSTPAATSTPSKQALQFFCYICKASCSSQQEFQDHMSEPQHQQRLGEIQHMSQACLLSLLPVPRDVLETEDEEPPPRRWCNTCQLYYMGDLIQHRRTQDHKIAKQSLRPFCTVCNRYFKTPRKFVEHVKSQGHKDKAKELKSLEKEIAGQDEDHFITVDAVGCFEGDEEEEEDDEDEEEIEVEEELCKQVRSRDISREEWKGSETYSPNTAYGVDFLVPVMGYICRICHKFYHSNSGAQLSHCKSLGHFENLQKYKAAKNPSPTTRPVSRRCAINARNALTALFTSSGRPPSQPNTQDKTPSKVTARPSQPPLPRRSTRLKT
UniProt Q9UI09, whole entry: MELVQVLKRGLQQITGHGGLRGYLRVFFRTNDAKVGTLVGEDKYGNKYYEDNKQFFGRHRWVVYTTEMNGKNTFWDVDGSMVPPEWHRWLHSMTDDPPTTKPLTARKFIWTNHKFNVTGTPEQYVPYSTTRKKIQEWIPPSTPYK
UniProt Q9UI10, whole entry: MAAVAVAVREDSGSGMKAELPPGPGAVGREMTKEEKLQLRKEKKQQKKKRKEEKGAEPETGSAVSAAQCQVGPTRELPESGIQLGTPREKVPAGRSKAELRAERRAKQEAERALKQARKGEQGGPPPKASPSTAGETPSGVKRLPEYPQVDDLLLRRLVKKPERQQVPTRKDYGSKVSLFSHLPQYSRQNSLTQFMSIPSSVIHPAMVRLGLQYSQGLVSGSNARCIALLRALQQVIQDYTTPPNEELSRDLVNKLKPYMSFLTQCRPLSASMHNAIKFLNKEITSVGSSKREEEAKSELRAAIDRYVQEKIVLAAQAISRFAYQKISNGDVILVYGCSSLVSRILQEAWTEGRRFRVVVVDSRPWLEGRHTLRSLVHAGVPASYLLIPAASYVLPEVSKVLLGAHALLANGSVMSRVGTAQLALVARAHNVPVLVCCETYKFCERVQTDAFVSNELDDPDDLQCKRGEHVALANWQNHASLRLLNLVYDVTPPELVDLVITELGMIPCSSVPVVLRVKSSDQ
UniProt Q9UPQ9, whole entry: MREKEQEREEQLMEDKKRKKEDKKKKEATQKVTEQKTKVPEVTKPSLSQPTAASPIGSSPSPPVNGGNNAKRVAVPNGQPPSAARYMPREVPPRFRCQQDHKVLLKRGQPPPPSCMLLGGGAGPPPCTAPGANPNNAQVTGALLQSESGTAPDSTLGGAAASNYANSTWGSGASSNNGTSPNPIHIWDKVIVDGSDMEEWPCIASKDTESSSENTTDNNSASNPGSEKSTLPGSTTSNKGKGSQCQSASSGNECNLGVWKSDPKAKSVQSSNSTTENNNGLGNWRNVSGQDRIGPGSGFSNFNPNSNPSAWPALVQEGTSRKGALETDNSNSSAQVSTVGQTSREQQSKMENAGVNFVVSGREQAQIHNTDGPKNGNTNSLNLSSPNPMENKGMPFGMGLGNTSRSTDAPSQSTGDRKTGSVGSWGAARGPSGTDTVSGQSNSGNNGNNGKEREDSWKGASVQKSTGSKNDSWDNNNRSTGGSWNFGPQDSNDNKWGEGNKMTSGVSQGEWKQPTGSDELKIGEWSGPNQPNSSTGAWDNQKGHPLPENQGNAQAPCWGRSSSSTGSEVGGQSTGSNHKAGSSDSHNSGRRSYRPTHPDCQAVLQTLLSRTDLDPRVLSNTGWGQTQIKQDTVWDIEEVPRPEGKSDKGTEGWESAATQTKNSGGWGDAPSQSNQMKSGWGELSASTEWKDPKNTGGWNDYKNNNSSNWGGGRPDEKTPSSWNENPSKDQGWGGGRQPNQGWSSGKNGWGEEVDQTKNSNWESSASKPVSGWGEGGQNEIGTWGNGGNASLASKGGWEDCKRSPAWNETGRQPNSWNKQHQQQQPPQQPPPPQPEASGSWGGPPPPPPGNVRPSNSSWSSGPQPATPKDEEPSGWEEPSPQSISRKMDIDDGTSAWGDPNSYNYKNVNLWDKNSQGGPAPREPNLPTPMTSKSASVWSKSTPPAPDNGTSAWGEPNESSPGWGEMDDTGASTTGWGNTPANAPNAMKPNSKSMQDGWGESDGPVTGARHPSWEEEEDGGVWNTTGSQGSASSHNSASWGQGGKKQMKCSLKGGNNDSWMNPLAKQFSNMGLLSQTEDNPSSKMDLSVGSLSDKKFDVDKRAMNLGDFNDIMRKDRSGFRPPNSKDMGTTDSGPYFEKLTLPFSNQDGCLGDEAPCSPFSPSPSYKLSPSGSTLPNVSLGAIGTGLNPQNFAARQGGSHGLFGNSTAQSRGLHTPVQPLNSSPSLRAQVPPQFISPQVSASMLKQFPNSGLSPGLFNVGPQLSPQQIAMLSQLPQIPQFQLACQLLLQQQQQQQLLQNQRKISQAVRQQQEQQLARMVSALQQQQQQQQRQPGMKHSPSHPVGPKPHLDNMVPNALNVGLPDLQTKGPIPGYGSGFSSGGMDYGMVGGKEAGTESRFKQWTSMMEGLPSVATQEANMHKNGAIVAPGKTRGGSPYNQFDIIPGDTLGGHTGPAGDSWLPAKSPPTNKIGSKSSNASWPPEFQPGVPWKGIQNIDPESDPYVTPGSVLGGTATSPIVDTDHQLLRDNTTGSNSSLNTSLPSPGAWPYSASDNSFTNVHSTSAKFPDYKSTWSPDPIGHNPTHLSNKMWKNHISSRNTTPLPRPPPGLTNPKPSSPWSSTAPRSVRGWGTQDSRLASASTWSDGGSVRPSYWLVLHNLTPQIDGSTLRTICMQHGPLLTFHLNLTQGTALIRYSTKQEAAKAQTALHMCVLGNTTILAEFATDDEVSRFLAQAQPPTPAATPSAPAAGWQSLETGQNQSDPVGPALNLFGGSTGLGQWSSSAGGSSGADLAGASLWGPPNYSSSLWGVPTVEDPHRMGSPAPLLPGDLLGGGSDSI
UniProt Q9ULX6: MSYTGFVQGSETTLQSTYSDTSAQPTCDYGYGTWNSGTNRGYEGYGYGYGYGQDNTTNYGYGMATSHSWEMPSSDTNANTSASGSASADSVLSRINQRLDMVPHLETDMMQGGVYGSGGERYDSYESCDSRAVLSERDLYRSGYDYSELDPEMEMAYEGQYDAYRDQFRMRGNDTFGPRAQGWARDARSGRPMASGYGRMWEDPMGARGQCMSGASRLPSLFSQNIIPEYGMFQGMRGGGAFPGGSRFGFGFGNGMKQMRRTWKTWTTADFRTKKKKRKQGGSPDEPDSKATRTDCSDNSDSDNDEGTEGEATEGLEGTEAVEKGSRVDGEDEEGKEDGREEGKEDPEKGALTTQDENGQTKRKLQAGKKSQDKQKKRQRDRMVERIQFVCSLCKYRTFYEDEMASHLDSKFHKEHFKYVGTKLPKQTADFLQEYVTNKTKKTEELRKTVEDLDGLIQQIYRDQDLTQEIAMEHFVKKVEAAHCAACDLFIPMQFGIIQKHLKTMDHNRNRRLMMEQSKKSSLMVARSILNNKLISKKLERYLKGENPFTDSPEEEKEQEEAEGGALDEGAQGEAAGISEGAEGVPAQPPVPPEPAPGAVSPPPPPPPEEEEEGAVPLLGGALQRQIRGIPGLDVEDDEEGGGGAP
UniProt Q9UJT1: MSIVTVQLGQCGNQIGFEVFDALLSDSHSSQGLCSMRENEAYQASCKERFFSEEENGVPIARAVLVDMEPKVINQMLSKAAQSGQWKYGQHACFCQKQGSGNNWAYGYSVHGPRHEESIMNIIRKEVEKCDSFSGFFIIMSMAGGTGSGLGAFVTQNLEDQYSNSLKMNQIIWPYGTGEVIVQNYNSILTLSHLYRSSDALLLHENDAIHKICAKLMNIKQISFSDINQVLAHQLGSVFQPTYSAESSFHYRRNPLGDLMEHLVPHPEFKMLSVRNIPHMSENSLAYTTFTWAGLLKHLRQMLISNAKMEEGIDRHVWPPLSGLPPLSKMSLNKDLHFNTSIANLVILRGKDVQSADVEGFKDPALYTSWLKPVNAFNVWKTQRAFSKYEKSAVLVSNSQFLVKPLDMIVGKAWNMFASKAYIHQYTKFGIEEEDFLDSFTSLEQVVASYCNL
UniProt Q9UGV2: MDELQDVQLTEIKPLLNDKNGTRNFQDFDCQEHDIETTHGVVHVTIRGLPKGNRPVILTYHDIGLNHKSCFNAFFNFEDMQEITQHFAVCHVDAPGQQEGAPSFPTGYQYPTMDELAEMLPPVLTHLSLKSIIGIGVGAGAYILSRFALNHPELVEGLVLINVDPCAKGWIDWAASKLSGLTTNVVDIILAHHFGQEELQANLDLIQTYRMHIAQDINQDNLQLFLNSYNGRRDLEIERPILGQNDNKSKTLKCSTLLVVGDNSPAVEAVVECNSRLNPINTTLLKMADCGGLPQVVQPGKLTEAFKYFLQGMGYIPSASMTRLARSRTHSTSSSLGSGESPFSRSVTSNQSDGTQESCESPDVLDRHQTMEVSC
UniProt Q9Y255: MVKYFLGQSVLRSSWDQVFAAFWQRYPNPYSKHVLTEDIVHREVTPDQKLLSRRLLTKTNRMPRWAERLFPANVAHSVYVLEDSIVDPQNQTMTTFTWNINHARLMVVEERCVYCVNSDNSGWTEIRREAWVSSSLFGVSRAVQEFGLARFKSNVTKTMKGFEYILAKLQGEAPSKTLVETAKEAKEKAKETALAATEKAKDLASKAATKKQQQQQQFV
UniProt Q9UPN6: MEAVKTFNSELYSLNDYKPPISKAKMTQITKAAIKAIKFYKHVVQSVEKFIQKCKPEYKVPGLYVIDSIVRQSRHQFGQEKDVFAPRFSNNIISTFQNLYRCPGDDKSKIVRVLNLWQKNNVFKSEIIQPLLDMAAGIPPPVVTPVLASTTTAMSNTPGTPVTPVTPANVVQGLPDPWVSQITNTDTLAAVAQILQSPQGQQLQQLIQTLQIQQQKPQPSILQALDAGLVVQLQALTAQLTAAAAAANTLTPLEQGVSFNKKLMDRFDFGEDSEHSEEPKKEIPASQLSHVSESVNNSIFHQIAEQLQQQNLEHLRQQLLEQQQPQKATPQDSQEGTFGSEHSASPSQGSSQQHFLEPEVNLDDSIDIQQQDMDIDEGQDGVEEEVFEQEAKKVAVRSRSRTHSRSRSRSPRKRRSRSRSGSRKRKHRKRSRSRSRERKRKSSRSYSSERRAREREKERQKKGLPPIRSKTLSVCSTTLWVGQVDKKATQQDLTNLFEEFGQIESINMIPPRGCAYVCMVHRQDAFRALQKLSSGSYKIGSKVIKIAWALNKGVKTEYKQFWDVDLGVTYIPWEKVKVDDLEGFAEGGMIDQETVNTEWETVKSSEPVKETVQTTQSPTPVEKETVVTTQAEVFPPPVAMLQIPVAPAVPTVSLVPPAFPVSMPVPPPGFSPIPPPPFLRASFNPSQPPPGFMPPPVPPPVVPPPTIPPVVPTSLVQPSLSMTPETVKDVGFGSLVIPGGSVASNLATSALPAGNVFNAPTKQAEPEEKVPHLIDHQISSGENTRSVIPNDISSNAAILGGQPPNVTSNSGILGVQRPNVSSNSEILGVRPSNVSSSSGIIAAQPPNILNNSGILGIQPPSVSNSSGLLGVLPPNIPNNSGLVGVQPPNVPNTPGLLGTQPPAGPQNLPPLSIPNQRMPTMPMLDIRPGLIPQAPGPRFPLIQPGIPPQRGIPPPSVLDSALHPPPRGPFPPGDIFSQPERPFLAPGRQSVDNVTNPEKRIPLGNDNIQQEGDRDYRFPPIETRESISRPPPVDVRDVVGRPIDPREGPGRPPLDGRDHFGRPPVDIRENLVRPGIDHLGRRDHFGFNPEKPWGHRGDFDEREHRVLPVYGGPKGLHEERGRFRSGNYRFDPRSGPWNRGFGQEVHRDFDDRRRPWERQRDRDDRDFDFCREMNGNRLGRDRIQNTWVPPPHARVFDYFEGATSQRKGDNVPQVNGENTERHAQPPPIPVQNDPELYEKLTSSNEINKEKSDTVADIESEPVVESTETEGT
UniProt Q9UFW8: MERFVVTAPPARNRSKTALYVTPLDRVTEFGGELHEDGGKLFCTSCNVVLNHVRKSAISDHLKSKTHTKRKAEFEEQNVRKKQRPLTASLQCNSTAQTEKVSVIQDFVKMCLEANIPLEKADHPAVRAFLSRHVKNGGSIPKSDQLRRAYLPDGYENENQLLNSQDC

Compound: CCc1cnccc1C(=O)Nc1cc2c(cc1F)NC(=O)CC2
Assay: melting temperature shift (DMSO Tm minus MBE1-treated Tm) in cellular thermal proteome profiling; higher = less thermal stabilization by MBE1 (negative = stabilized by MBE1)
Details: A375

Target	melting temperature shift (MBE1 concentration: 100 nM) [°C]	melting temperature shift (MBE1 concentration: 1 uM) [°C]
CIZ1 (UniProt Q9ULV3)	-0.11	1.03
NDUFA12 (UniProt Q9UI09)	-0.55	-0.507
Q8IXS6 (UniProt Q9Y2D5)	-7.9	-2.44
DICER1 (UniProt Q9UPY3)	1.29	0.501
MRPS33 (UniProt Q9Y291)	-0.0366	0.0916
AP4E1 (UniProt Q9UPM8)	0.146	0.202
BAZ1B (UniProt Q9UIG0)	-0.199	-0.263
RUVBL1 (UniProt Q9Y265)	-1.07	-1.68
DBR1 (UniProt Q9UK59)	-1.81	-1.68
MINPP1 (UniProt Q9UNW1)	-1.25	0.0122
EIF2B4 (UniProt Q9UI10)	-0.318	0.104
UniProt Q9UMR2	0.0855	0.244
AMACR (UniProt Q9UHK6)	-0.377	0.898
DNAJC16 (UniProt Q9Y2G8)	0.837	0.305
TBC1D24 (UniProt Q9ULP9)	0.434	0.733
NARF (UniProt Q9UHQ1)	-0.472	-2.09
TRAPPC4 (UniProt Q9Y296)	-2.66	0.634
TNRC6B (UniProt Q9UPQ9)	1.02	0.379
SPG7 (UniProt Q9UQ90)	-0.811	-0.0794
UniProt Q9ULU4	-0.377	-0.137
AKAP8L (UniProt Q9ULX6)	-0.737	-0.493
UniProt Q9UGU0	1.14	1.01
UniProt Q9ULJ8	0.977	0.177

Single entries from above.
Value of UniProt Q9UGU0 under melting temperature shift (MBE1 concentration: 100 nM) [°C]: 1.14
Value of MRPS33 (UniProt Q9Y291) under melting temperature shift (MBE1 concentration: 1 uM) [°C]: 0.0916

(continued)

Target	melting temperature shift (MBE1 concentration: 100 nM) [°C]	melting temperature shift (MBE1 concentration: 1 uM) [°C]
UniProt Q9UPW5	-0.872	0.557
TES (UniProt Q9UGI8)	0.409	11.4
UniProt Q9UJT1	1.06	0.745
GNE (UniProt Q9Y223)	-1.37	-0.983
MKLN1 (UniProt Q9UL63)	-0.406	0.147
UniProt Q9Y2D2	-0.299	-2.12
UniProt Q9UMN6	-1.12	-0.841
UniProt Q9UM19	-0.288	-0.777
UBQLN2 (UniProt Q9UHD9)	-1.71	-2.86
GINS2 (UniProt Q9Y248)	0.946	0.556
COG5 (UniProt Q9UP83)	-0.852	-1.91
DIMT1 (UniProt Q9UNQ2)	-0.771	-1.22
AMFR (UniProt Q9UKV5)	-1.62	-0.959
PFDN2 (UniProt Q9UHV9)	-3.39	-2.71
PRPF19 (UniProt Q9UMS4)	-0.855	-1.09
SAP30BP (UniProt Q9UHR5)	-1.1	-0.822
NDRG3 (UniProt Q9UGV2)	-0.402	-0.255
TRIM33 (UniProt Q9UPN9)	-0.404	-0.365
CHORDC1 (UniProt Q9UHD1)	0.302	0.33
KIDINS220 (UniProt Q9ULH0)	-0.127	-0.201
UniProt Q9UMX1	0.525	1.42
UniProt Q9UQL6	0.214	0.202
TIMELESS (UniProt Q9UNS1)	-0.0384	-0.282

Target	melting temperature shift (MBE1 concentration: 100 nM) [°C]	melting temperature shift (MBE1 concentration: 1 uM) [°C]
ACAD8 (UniProt Q9UKU7)	-0.684	0.868
HOOK1 (UniProt Q9UJC3)	0.458	0.0305
TLK1 (UniProt Q9UKI8)	1.67	4.77
SUN2 (UniProt Q9UH99)	-0.732	0.702
MKL2 (UniProt Q9ULH7)	-0.0733	-0.48
NIP7 (UniProt Q9Y221)	-0.744	0.141
UniProt Q9UG01	-0.949	-1.14
PTBP2 (UniProt Q9UKA9)	-0.244	-0.147
NFU1 (UniProt Q9UMS0)	-1.02	-0.629
BAIAP2L1 (UniProt Q9UHR4)	-0.718	-0.134
DBNL (UniProt Q9UJU6)	0.202	-0.33
UniProt Q9UJA3	-5.23	-3.04
UniProt Q9UNK9	-3.71	-4.98
USP24 (UniProt Q9UPU5)	0.586	-0.14
EXOC6B (UniProt Q9Y2D4)	-1.63	-4.4
PRELID1 (UniProt Q9Y255)	-0.646	0.446
SCAF8 (UniProt Q9UPN6)	-0.474	-0.295
CGGBP1 (UniProt Q9UFW8)	-0.986	-0.832
UniProt Q9UK13	0.397	0.208
UniProt Q9UHD8	-0.516	0.00671
AGO1 (UniProt Q9UL18)	-2.34	0.922
MAD2L2 (UniProt Q9UI95)	-1.08	-2.06
UniProt Q9ULW3	1.54	0.715
